In PubChem BioAssay AID222 (DTP/NCI, 2004):
The list shows only some results of the screen, not a fair sample: it is rich in T/C values a quarter to a half above the control, in often repeated tests (any T/C) and in doses without a T/C. Further doses and runs are listed elsewhere. T/C is the treated group as % of the vehicle group. Some doses have a count of surviving animals in place of a T/C: the source holds a T/C of zero for them, seemingly a mark for toxic or unscored doses. Some doses without a T/C left all or most animals alive at the check, yet need not have been tolerated: the source hardly ever lists a survival T/C far under the control, and the zero likely stands for such cases as well. Survivors were counted at the toxicity check, usually on the fifth day, unless a day is given; later deaths do not show. Schedule codes are those of the source, read here as Q, the interval in days (D) or hours (H), X, the number of doses. Some entries were tested several times; the values are given in rising order.

Test system: C57BL/6 mice, intracerebral ependymoblastoma, median survival T/C
Assay: NCI In Vivo Anticancer Drug Screen. Data for tumor model Ependymoblastoma (intracerebral) in C57BL/6 mice
Settings: T/C endpoint: median survival time, schedule: Q01DX005 (ip), higher T/C = longer survival
Method: The antitumor activity of compounds was measured in mice bearing transplantable tumors. Survival or tumor size were measured and the results are expressed as the measurement made in the treated group (T) divided by the measurement made in the vehicle treated control group (C). The tumor model used in this assay is Ependymoblastoma (intracerebral) in C57BL/6 mice

[1] = dose: 256.0 mg/kg/injection, vehicle: Klucel (hydroxypropylcellulose) (HPC)

SMILES	survivor count [1]	survivor count (dose: 16.0 mg/kg/injection, vehicle: saline with Tween-80)	survivor count (dose: 32.0 mg/kg/injection, vehicle: saline with Tween-80)	survivor count (dose: 64.0 mg/kg/injection, vehicle: saline with Tween-80)	survivor count (dose: 128.0 mg/kg/injection, vehicle: Klucel (hydroxypropylcellulose) (HPC))
CC(C)=CCC1=C(O)c2ccccc2C(=O)C1=O	3 of 10	–	–	–	–
COc1cc2c3c(c1)-c1c(ccc(OC)c1OC)CC3N(CCN(CCCl)CCCl)CC2 (stereo unspecified)	–	3 of 6	1 of 6	1 of 6 and 4 of 6	–
NC(CSC(c1ccccc1)(c1ccccc1)c1ccccc1)C(=O)O (stereo unspecified)	3 of 10	–	–	–	9 of 10
